Article PMC3561343
Results are given in words; binding and its absence hold for the method and conditions named. Binding seen in cells or lysates may run through a third protein. Here binding means that the protein was enriched with, or labelled near, the bait; the list need not be complete.

Amino acid sequences for entries named in this document (tags omitted).
UniProt Q07812: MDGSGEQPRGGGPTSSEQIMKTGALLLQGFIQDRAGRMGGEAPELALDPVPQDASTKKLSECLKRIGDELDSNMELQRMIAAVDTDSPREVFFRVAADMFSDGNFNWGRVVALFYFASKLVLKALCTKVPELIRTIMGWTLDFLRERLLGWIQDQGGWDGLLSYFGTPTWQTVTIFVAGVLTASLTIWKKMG
UniProt P11142: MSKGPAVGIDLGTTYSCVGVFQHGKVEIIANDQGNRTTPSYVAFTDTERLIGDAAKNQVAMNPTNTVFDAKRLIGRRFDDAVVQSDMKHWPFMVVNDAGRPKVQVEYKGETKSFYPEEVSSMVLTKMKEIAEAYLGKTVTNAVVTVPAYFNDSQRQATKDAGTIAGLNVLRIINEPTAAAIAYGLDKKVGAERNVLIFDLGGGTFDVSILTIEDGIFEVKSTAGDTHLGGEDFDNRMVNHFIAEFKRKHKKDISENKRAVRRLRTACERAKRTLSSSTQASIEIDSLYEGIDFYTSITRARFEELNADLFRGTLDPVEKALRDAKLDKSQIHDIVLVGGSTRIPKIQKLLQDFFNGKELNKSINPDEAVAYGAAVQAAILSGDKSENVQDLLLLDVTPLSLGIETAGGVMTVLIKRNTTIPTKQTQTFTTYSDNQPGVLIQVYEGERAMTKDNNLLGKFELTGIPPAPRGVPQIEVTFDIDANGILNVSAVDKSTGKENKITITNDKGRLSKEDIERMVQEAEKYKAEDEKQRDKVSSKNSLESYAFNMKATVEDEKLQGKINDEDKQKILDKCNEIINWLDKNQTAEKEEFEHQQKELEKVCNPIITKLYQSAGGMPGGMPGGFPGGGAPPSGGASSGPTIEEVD
UniProt P34931: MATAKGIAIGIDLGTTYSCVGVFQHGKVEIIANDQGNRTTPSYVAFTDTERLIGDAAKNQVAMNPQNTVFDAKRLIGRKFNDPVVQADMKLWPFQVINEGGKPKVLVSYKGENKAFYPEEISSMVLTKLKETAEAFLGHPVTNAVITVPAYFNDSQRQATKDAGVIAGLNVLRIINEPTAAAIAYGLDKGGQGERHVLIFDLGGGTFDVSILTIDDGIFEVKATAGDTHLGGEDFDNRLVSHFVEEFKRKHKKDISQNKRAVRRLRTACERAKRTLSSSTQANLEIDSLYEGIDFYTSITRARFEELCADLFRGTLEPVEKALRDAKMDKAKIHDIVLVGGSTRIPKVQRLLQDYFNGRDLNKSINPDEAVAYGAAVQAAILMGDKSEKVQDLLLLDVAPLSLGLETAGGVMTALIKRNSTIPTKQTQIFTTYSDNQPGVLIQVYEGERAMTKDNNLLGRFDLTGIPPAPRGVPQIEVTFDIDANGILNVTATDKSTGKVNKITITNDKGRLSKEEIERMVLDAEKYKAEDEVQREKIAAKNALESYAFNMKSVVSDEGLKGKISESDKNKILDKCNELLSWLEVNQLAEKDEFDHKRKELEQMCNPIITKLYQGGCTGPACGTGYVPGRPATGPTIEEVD
UniProt P31749: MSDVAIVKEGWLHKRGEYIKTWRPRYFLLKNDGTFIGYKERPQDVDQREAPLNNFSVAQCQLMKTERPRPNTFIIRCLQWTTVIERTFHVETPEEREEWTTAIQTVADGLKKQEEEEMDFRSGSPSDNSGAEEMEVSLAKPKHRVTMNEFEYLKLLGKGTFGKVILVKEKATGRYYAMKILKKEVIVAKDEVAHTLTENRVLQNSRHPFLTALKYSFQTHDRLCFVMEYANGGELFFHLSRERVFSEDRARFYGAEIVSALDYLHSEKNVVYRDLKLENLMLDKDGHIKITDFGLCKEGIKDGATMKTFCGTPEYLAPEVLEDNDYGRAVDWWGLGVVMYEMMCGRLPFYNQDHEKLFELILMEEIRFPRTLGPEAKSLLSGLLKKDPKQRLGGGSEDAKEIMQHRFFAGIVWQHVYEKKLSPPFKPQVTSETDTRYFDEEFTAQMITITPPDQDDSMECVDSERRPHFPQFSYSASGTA
UniProt P08238: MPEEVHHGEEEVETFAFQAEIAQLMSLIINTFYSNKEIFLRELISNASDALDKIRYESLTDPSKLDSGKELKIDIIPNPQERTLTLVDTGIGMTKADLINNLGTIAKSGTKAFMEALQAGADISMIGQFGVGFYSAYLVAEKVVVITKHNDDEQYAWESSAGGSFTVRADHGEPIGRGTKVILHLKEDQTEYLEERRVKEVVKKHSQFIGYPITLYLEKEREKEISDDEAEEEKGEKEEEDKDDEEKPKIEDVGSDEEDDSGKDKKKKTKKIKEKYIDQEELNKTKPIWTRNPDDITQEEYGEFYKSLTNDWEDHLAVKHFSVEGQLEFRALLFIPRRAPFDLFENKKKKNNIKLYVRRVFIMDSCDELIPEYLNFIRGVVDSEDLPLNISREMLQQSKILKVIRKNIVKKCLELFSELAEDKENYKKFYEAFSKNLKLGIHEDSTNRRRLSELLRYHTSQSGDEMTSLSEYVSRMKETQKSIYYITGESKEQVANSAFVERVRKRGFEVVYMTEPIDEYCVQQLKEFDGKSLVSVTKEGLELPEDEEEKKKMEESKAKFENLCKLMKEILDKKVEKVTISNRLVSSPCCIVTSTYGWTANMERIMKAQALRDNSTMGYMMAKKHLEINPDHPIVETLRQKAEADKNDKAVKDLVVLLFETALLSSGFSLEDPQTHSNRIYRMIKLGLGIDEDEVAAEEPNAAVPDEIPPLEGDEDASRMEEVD
UniProt P0DMV8: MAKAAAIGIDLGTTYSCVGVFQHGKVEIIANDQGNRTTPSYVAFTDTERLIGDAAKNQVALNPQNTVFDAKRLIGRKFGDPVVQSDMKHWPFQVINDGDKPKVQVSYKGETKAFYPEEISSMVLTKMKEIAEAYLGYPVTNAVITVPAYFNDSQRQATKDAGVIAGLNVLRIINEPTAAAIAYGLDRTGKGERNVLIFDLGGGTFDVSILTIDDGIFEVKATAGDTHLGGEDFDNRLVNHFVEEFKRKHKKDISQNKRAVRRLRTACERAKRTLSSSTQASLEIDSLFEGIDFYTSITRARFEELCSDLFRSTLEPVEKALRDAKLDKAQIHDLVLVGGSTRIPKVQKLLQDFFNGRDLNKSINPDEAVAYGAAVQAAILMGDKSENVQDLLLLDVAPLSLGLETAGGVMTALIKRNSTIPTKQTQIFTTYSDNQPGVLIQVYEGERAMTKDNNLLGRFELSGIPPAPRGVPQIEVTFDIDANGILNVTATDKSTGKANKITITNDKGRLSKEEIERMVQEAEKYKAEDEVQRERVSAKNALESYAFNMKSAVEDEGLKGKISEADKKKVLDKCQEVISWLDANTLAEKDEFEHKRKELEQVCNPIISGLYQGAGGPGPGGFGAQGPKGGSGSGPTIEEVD
UniProt P07437: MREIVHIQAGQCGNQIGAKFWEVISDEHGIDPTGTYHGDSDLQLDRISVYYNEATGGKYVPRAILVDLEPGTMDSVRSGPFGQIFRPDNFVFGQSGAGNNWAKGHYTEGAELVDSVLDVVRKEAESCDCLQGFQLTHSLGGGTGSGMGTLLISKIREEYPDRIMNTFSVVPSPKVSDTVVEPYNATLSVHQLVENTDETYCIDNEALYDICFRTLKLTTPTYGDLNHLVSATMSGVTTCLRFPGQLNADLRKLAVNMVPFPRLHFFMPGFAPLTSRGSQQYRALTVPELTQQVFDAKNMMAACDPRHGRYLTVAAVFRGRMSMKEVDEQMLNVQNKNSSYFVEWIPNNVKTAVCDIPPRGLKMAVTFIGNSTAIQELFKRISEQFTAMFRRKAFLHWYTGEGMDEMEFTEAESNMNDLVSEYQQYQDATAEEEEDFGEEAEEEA
UniProt P68371: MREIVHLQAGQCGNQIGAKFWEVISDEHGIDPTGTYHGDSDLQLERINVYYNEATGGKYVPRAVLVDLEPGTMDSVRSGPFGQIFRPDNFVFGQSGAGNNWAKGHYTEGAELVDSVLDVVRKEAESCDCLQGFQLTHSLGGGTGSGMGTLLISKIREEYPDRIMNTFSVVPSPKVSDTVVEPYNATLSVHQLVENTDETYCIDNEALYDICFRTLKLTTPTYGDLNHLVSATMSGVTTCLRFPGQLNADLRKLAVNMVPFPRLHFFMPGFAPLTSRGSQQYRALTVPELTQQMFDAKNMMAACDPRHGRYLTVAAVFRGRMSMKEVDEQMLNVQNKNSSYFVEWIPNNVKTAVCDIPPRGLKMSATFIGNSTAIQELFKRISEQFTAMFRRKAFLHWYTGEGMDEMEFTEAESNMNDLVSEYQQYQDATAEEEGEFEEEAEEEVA
UniProt Q00987: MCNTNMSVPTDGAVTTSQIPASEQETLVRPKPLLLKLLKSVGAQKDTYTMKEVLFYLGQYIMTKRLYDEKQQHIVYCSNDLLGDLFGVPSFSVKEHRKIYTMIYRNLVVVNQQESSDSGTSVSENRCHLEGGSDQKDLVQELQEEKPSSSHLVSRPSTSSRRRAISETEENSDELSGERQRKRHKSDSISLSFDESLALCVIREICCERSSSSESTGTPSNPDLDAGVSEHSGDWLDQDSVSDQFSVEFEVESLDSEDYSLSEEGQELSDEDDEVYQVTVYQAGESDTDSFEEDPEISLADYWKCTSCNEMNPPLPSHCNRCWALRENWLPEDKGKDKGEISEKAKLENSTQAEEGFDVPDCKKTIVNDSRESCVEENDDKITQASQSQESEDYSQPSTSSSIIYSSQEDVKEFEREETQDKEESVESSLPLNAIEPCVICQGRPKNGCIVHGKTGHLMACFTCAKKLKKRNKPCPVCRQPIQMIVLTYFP
UniProt P08670: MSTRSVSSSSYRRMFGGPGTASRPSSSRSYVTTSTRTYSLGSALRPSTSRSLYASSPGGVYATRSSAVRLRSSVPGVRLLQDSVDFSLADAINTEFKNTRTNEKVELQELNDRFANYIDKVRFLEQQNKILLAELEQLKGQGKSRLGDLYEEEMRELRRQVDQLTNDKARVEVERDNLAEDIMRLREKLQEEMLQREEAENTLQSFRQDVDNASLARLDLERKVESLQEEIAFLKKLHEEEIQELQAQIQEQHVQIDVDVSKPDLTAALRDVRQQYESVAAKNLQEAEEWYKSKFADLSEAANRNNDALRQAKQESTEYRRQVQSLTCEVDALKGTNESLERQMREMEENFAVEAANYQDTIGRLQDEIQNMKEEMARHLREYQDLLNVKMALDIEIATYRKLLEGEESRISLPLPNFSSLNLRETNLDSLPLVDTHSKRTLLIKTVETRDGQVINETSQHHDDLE

target: VCP-Flag (valosin-containing protein, wild type) (UniProt P55072); assay: affinity purification with mass spectrometry; AGS cells with adenoviral VCP-Flag or empty vector, 10 µM MG-132 3 hr, H. pylori 6 hr; lysate (25 mM Tris pH 7.5, 150 mM NaCl, 1% NP-40) on anti-Flag M2 affinity gel overnight at 4°C; eluate on 10% SDS-PAGE, in-gel trypsin digestion, LC-MS/MS (LTQ-Orbitrap); proteins also found with empty vector subtracted

Molecule	binding
BAX (from UniProt Q07812 1-192)	binds
HSPA8 (from UniProt P11142 1-646)	binds
HSPA1L (from UniProt P34931 1-641)	binds
Akt (from UniProt P31749 1-480)	binds
HSP90AB1 (from UniProt P08238 1-724)	binds
HSPA1A/HSPA1B (from UniProt P0DMV8 1-641)	binds
TUBB (from UniProt P07437 1-444)	binds
TUBB2C (from UniProt P68371 1-445)	binds
MDM2 (from UniProt Q00987 1-491)	binds
VIM (from UniProt P08670 1-466)	binds
NFKB2 (protein, UniProt Q00653 1-900) MESCYNPGLDGIIEYDDFKLNSSIVEPKEPAPETADGPYLVIVEQPKQRGFRFRYGCEGPSHGGLPGASSEKGRKTYPTVKICNYEGPAKIEVDLVTHSDPPRAHAHSLVGKQCSELGICAVSVGPKDMTAQFNNLGVLHVTKKNMMGTMIQKLQRQRLRSRPQGLTEAEQRELEQEAKELKKVMDLSIVRLRFSAFLRASDGSFSLPLKPVISQPIHDSKSPGASNLKISRMDKTAGSVRGGDEVYLLCDKVQKDDIEVRFYEDDENGWQAFGDFSPTDVHKQYAIVFRTPPYHKMKIERPVTVFLQLKRKRGGDVSDSKQFTYYPLVEDKEEVQRKRRKALPTFSQPFGGGSHMGGGSGGAAGGYGGAGGGGSLGFFPSSLAYSPYQSGAGPMGCYPGGGGGAQMAATVPSRDSGEEAAEPSAPSRTPQCEPQAPEMLQRAREYNARLFGLAQRSARALLDYGVTADARALLAGQRHLLTAQDENGDTPLHLAIIHGQTSVIEQIVYVIHHAQDLGVVNLTNHLHQTPLHLAVITGQTSVVSFLLRVGADPALLDRHGDSAMHLALRAGAGAPELLRALLQSGAPAVPQLLHMPDFEGLYPVHLAVRARSPECLDLLVDSGAEVEATERQGGRTALHLATEMEELGLVTHLVTKLRANVNARTFAGNTPLHLAAGLGYPTLTRLLLKAGADIHAENEEPLCPLPSPPTSDSDSDSEGPEKDTRSSFRGHTPLDLTCSTKVKTLLLNAAQNTMEPPLTPPSPAGPGLSLGDTALQNLEQLLDGPEAQGSWAELAERLGLRSLVDTYRQTTSPSGSLLRSYELAGGDLAGLLEALSDMGLEEGVRLLRGPETRDKLPSTAEVKEDSAYGSQSVEQEAEKLGPPPEPPGGLCHGHPQPQVH	binds
programmed cell death 4 (PDCD4) (protein, UniProt Q53EL6 1-469) MDVENEQILNVNPADPDNLSDSLFSGDEENAGTEEIKNEINGNWISASSINEARINAKAKRRLRKNSSRDSGRGDSVSDSGSDALRSGLTVPTSPKGRLLDRRSRSGKGRGLPKKGGAGGKGVWGTPGQVYDVEEVDVKDPNYDDDQENCVYETVVLPLDERAFEKTLTPIIQEYFEHGDTNEVAEMLRDLNLGEMKSGVPVLAVSLALEGKASHREMTSKLLSDLCGTVMSTTDVEKSFDKLLKDLPELALDTPRAPQLVGQFIARAVGDGILCNTYIDSYKGTVDCVQARAALDKATVLLSMSKGGKRKDSVWGSGGGQQSVNHLVKEIDMLLKEYLLSGDISEAEHCLKELEVPHFHHELVYEAIIMVLESTGESTFKMILDLLKSLWKSSTITVDQMKRGYERIYNEIPDINLDVPHSYSVLERFVEECFQAGIISKQLRDLCPSRGRKRFVSEGDGGRLKPESY	binds
